The values below come from PubChem BioAssay AID268 (DTP/NCI, 2004).

The list does not hold the whole screen: its compounds were picked by chemical class. Other doses and runs of a compound may be missing. T/C: endpoint of the treated group in % of that of the vehicle group. Some entries show no survivor count and are marked so; the dose need not have been tolerated. Schedules are NCI's codes, taken here to give the interval after Q, in days (D) or hours (H), and the number of doses after X. Some entries hold several experiments; the results are listed from low to high.

This experiment deals with CD2F1 mice, P1798 lymphosarcoma sc, tumor weight T/C. The experiment is described as follows: NCI In Vivo Anticancer Drug Screen. Data for tumor model P1798 Lymphosarcoma (subcutaneous) in CD2F1 (CDF1) mice. The note with it: T/C endpoint: mean tumor weight, schedule: Q01DX010 (ip), vehicle: saline, evaluation day not shown, higher T/C = larger tumour. As for the experimental part:
The antitumor activity of compounds was measured in mice bearing transplantable tumors. Survival or tumor size were measured and the results are expressed as the measurement made in the treated group (T) divided by the measurement made in the vehicle treated control group (C). The tumor model used in this assay is P1798 Lymphosarcoma (subcutaneous) in CD2F1 (CDF1) mice

For the compound `O=C(O)CN(CCCl)CCCl`, the T/C is, setting by setting: (dose: 0.63 mg/kg/injection) 73 [survivor count not shown] and 92 % of control [survivor count not shown]; (dose: 1.25 mg/kg/injection) 76 [survivor count not shown] and 131 % of control [survivor count not shown]; (dose: 2.5 mg/kg/injection) 37 [survivor count not shown] and 56 % of control [survivor count not shown].

Consider `ClCCNCCCl`, for which the T/C runs as follows: (dose: 9.4 mg/kg/injection) 78 % of control [survivor count not shown]; (dose: 18.8 mg/kg/injection) 14 [survivor count not shown] and 61 % of control [survivor count not shown]; (dose: 37.5 mg/kg/injection) 10 [survivor count not shown] and 36 % of control [survivor count not shown].

As for `NC(Cc1ccccc1N(CCCl)CCCl)C(=O)O` (stereo not given), the T/C runs as follows: (dose: 0.13 mg/kg/injection) 113 % of control [survivor count not shown]; (dose: 0.25 mg/kg/injection) 112 % of control [survivor count not shown]; (dose: 0.5 mg/kg/injection) 54 % of control [survivor count not shown]; (dose: 1.0 mg/kg/injection) 50 % of control [survivor count not shown].

As for `NC(Cc1cccc(N(CCCl)CCCl)c1)C(=O)O` (stereo not given), the T/C reads like this: (dose: 0.63 mg/kg/injection) 48 [survivor count not shown] and 74 % of control [survivor count not shown]; (dose: 1.25 mg/kg/injection) 23 [survivor count not shown] and 50 % of control [survivor count not shown]; (dose: 2.5 mg/kg/injection) 13 [survivor count not shown] and 24 % of control [survivor count not shown].

As for `CC(C(=O)O)N(CCCl)CCCl` (stereo not given), the T/C was 76 % of control [survivor count not shown] (dose: 0.5 mg/kg/injection); 89 [survivor count not shown] and 101 % of control [survivor count not shown] (dose: 1.0 mg/kg/injection); 39 [survivor count not shown] and 59 % of control [survivor count not shown] (dose: 2.0 mg/kg/injection); 18 % of control [survivor count not shown] (dose: 4.0 mg/kg/injection).

Take `ClCCN(CCCl)Cc1nc2ccccc2[nH]1`: the T/C was 43 [survivor count not shown] and 72 % of control [survivor count not shown] (dose: 1.25 mg/kg/injection); 40 [survivor count not shown] and 51 % of control [survivor count not shown] (dose: 2.5 mg/kg/injection); 26 [survivor count not shown] and 31 % of control [survivor count not shown] (dose: 5.0 mg/kg/injection).
